Measured values reported in PubChem BioAssay AID651814 (National Center for Advancing Translational Sciences (NCATS), 2012).
The whole screen tested about 2,100 compounds, of which about 590 (28%) were called active. The shares of active, inactive and inconclusive entries below differ from those in the screen. The call rests on the fitted dose curve; in most records, active means well fitted inhibition curve with a large enough effect; inconclusive means small, poorly fitted or top-dose-only effect; inactive means flat fitted curve, though single readings scatter. Potencies of inconclusive entries are doubtful fits and often do not repeat.

Protein sequences, listed by entry. Tags and fused reporters are not part of them. Lines headed by an entry give the natural chain unless they say otherwise; changes in a name come on top.
UniProt Q8IUX4: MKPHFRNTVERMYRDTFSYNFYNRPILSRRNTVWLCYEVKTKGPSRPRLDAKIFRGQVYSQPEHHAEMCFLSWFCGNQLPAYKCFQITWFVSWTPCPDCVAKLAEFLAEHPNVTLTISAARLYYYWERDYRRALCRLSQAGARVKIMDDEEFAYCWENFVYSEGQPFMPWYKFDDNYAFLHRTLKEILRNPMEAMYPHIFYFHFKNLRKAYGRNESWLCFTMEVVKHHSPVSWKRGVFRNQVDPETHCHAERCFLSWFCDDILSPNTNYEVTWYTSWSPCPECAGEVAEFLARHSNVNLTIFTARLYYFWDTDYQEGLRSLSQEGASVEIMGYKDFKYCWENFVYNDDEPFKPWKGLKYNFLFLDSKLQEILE

Target: DNA dC->dU-editing enzyme APOBEC-3F (Homo sapiens) (UniProt Q8IUX4)
Experiment: qHTS for inhibitors of Vif-A3F interactions: Cherry picks; further: nearly all actives have a fitted effect of over 70% in size;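 on max response: % of control where 0% means no effect; active compounds raise eYFP fluorescence by blocking Vif-driven A3F loss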
Details: HeLa A3F-eYFP + Vif (tagged APOBEC3F with the HIV-1 protein that degrades it), eYFP fluorescence, 24 h
Outline: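 HeLa cells stably expressing A3F-eYFP plus Vif, cultured overnight, then exposed to compounds at several concentrations for 24 h at 37 deg C. Reduced Vif-driven degradation read as rising eYFP fluorescence (488 nm ex/500-530 nm em) by laser-scanning cytometry; MG132 as positive control.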
Potency means the concentration at half of the fitted maximal effect.

Structure (SMILES) | Potency | max response
O=C1c2cccc3c([N+](=O)[O-])c(O)cc(c23)C(=O)N1Nc1ccccc1 | inconclusive: 29.1 µM [inhibitor, single point] | 
CCOc1ccc(/C=N/NC(=O)c2cc3c(OC)cccc3[nH]2)cc1 | inconclusive: 22.3 µM [inhibitor, single point] | 
CCOC(=O)C(=Cc1ccc(-n2cncn2)cc1)C(=O)OCC | inconclusive: 15.8 µM [inhibitor, single point] | 
CC1(C(=O)NCc2ccco2)Cc2c(-c3cccc(C(N)=O)c3)ccnc2O1 (stereo not drawn) | inconclusive: 6.27 µM [inhibitor, partial curve] | 
CSc1ccc(/C=N/NC(=O)c2ccccc2Cl)cc1 |  | inactive: -22.8%
CCCNC(=O)c1ccccc1NC(=O)c1ccc2c(c1)NC(=O)C(C)S2 (stereo not drawn) | inconclusive: 5.59 µM [inhibitor, partial curve] | 
O=C(c1cc(-c2ccncc2)nc2ccccc12)N1CCN(c2ccccn2)CC1 | inconclusive: 5.59 µM [inhibitor, partial curve] | 
COc1ccc(-c2nnc(NC(=O)c3ccc([N+](=O)[O-])o3)o2)c(OC)c1 | inconclusive: 20.6 µM [inhibitor, single point] | 
O=C(NCCN1C(=O)S/C(=C\c2ccc(OC(F)F)cc2)C1=O)c1cnccn1 | inconclusive: 12.5 µM [inhibitor, partial curve] | 
CN(C)c1ccc(/C=C/c2ccnc3ccc(-c4ccccc4)cc23)cc1 | active: 2.31 µM | 
CCN(CC)c1ccc(/C=N/N=C(N)N)c(O)c1 | inconclusive: 8.86 µM [inhibitor, partial curve] | 
CN(C)c1ccc(/C=N/NC(=O)c2ccccc2Cl)cc1 | inconclusive: 4.98 µM [inhibitor, full curve] | 
Cc1cccc(C)c1Nc1nc2ccccc2nc1NS(=O)(=O)c1ccccc1 |  | inactive: -12.4%
NN=C1c2ccccc2C(=O)C1C(=O)C(c1ccccc1)c1ccccc1 (stereo not drawn) | active: 7.9 µM | 
Nc1c(C(=O)Nc2ccccc2F)sc2nc(-c3ccco3)ccc12 | inconclusive: 25.9 µM [inhibitor, single point] | 
COC(=O)C1=C(C)N(Cc2ccco2)C(=O)/C1=C\c1ccc([N+](=O)[O-])cc1 | inconclusive: 29.1 µM [inhibitor, single point] | 
O=C(NC1CCCCCC1)c1ccc2c(c1)sc1nc(-c3ccccc3)cn12 | inconclusive: 25.9 µM [inhibitor, single point] | 
CCn1c(O)c(/C=N/NC(=O)c2ccncc2)c(=O)n(CC)c1=S |  | inactive: -6.26%

An excerpt from above in order of SMILES length, falling:
Structure (SMILES) | Potency | max response
COc1ccc(-c2nnc(NC(=O)c3ccc([N+](=O)[O-])o3)o2)c(OC)c1 | inconclusive: 20.6 µM [inhibitor, single point] | 
CC1(C(=O)NCc2ccco2)Cc2c(-c3cccc(C(N)=O)c3)ccnc2O1 (stereo not drawn) | inconclusive: 6.27 µM [inhibitor, partial curve] | 
CCn1c(O)c(/C=N/NC(=O)c2ccncc2)c(=O)n(CC)c1=S |  | inactive: -6.26%
